Out of some 400,000 compounds screened, about 5,500 (1.4%) were called active. The shares of active, inactive and inconclusive entries below differ from those in the screen. Calls follow the shape of the dose curve; as a rule, active = well fitted cell-killing curve with a large enough effect; inconclusive = small, poorly fitted or top-dose-only effect, or effect the other way; inactive = flat fitted curve, though single readings scatter. A potency beside an inconclusive call is a rough fit, not a confirmed value.
Test: qHTS assay for MDR1-selective chemotherapeutics: Primary screen using the parental adenocarcinoma cell KB-3-1; also: nearly all actives have a fitted effect of over 60% in size
Conditions: KB-3-1 viability, CellTiter-Glo ATP luminescence, 72 h; activity change, negative = cytotoxic: at 46.1 µM (top of the series)
Procedure, shortened: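 Parental KB-3-1 adenocarcinoma cells in phenol-red-free DMEM with 10% FBS were pin-treated with compounds at several concentrations, incubated 72 h at 37 °C, and viability read by CellTiter-Glo luminescence; concentration-effect curves were fitted after normalization.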
% is scaled to controls: 0 for no effect and ±100 for the full control effect; potency is read from the fitted curve at half-maximal effect.

Row | Structure (SMILES) | Potency | activity change, negative = cytotoxic
1 | O=C(Nc1ccc(N2CCCC2)c(Cl)c1)c1ccc(Br)o1 | inconclusive: 20.6 µM [cytotoxic, partial curve, poor fit] | 
2 | COc1cc2c(c(OC)c1OC)-c1ccc(NC(=O)c3ccc(F)cc3)c(=O)cc1[C@@H](NC(C)=O)CC2 | inconclusive: 29.1 µM [cytotoxic, single point] | 
3 | C=CC(=O)NN(C)c1ncc(C(F)(F)F)cc1Cl | inconclusive: 29.1 µM [cytotoxic, single point] | 
4 | COc1ccccc1C(=O)NCCC(=O)N1CCCCCCC1 | inconclusive: 29.1 µM [rising, single point] | 
5 | CCOC(=O)c1c(NC(=O)CN2C(=O)NC3(CCCCC3)C2=O)sc(C)c1-c1ccc(C)cc1 | inconclusive: 29.1 µM [cytotoxic, single point] | 
6 | NC(=O)N/N=C/c1c(Sc2nnnn2-c2ccccc2)nc2ccccn2c1=O | inconclusive: 29.1 µM [cytotoxic, single point] | 
7 | Cc1ccc(-n2nc3c4c(cccc4c2=O)-c2ccccc2-3)cc1 | inconclusive: 25.9 µM [cytotoxic, single point] | 
8 | C=CCn1cc(C(=O)NCC2CCCO2)c(=O)c2cc(S(=O)(=O)N3CCCCCC3)ccc21 (stereo unspecified) | inactive | 
9 | O=C(NC(c1ccc(F)cc1)c1ccc2ccccc2n1)C1CCN(CCOc2ccc(F)cc2)CC1 (stereo unspecified) | inconclusive: 29.1 µM [cytotoxic, single point] | 
10 | C#CCN(C[C@@H]1[C@@H](OC(=O)NCCCCCC)[C@@H](OC(=O)NCCCCCC)Cn2c(=O)ccc(=O)n21)S(=O)(=O)c1ccc(C)cc1 | inconclusive: 3.66 µM [cytotoxic, partial curve, poor fit] | 
11 | O=C(O)c1ccc(N/N=C/c2ccc3c(c2)OCO3)cc1 | active: 20.6 µM | 
12 | Cc1cccc(C(=O)Oc2ccccc2/C=N/Nc2ccc([N+](=O)[O-])cc2)c1 | inconclusive: 29.1 µM [cytotoxic, single point] | 
13 | O=c1cc(SCc2ccccc2)nc[nH]1 | inactive | 
14 | O=[N+]([O-])c1cccc(/C=C/c2ccccn2)c1 | inconclusive: 29.1 µM [cytotoxic, single point] | 
15 | Cc1ccccc1-n1c(SCc2c(C)noc2C)nnc1-c1c[nH]c2ccccc12 | inconclusive: 29.1 µM [cytotoxic, single point] | 
16 | COc1cccc(NC(=O)CCN2C(=O)c3ccccc3Sc3ncccc32)c1 | inconclusive: 13 µM [cytotoxic, partial curve, poor fit] | 
17 | CCc1ccccc1NC(=O)NC1CC2CCC(C1)N2Cc1cccs1 (stereo unspecified) | inactive | 
18 | C[C@H]1CN([C@@H](C)CO)S(=O)(=O)c2ccc(/C=C/c3ccccc3)cc2O[C@H]1CN(C)C(=O)NC1CCCCC1 | inconclusive: 29.1 µM [cytotoxic, single point] | 
19 | CSCC[C@H](NC(=O)[C@H](Cc1ccccc1)n1c(=O)[nH]c2ccccc2c1=O)C(=O)NCC1CCC(C(=O)O)CC1 (stereo partly specified) | inactive | 
20 | CC(C)NC(=S)NN=C1c2ccccc2-c2ccccc21 | inactive | 
21 | CCOc1ccc(C(=O)Nc2ccc(S(=O)(=O)Nc3cc(C)on3)cc2)cc1 |  | inconclusive: -16.6%

Quoted from the listing.
Potency, Cc1cccc(C(=O)Oc2ccccc2/C=N/Nc2ccc([N+](=O)[O-])cc2)c1 is entered as inconclusive: 29.1 µM [cytotoxic, single point]
Potency, O=C(Nc1ccc(N2CCCC2)c(Cl)c1)c1ccc(Br)o1 is entered as inconclusive: 20.6 µM [cytotoxic, partial curve, poor fit]

Next records

Row | Structure (SMILES) | Potency | activity change, negative = cytotoxic
22 | C=CCNC(=O)N1CCCC(N2CCN(c3ccccc3OC)CC2)C1 (stereo unspecified) | inactive | 
23 | CC(NC(=O)/C(C#N)=C1\N=C(NC(=O)c2cccs2)c2ccccc21)c1ccccc1 (stereo unspecified) | inconclusive: 29.1 µM [cytotoxic, single point] | 
24 | CN(Cc1cccc(F)c1)C(=O)c1cccc(S(=O)(=O)N2CCN(Cc3ccccc3)CC2)c1 | inconclusive: 29.1 µM [cytotoxic, single point] | 
25 | Cc1cc(=O)[nH]c(NN=Cc2cc(Br)ccc2O)n1 | inconclusive: 5.8 µM [cytotoxic, single point] | 
26 | COc1ccc2oc(C(=O)OCC(=O)NCc3ccc(OC)c(OC)c3)c(C)c2c1 | inactive | 
27 | O=C(OCCNc1ccc(C(F)(F)F)cc1[N+](=O)[O-])c1cc2ccccc2oc1=O | inactive | 
28 | CCc1c(O)cc2n(c1=O)-c1ccc(Cl)cc1C2(C)C | inconclusive: 35.5 µM [cytotoxic, single point] | 
29 | O=C(NC1=C(NC2CCS(=O)(=O)C2)C(=O)c2ccccc2C1=O)c1ccccc1 (stereo unspecified) | inconclusive: 18.4 µM [cytotoxic, single point] | 
30 | O=C(Nc1nc2c(F)cc(F)cc2s1)c1ccc(S(=O)(=O)N2CCc3ccccc32)cc1 | inconclusive: 20.6 µM [cytotoxic, single point] | 
31 | Cc1ccc(C(=O)NC(=S)/C=C2\N(C)c3ccccc3C2(C)C)cc1 | inconclusive: 11.6 µM [cytotoxic, partial curve, poor fit] | 
32 | Cc1ccc(CNC(=O)CSc2nc3c(sc4ccccc43)c(=O)n2CCCC(=O)NCCO)cc1 | inactive | 
33 | COc1cc(CNC(C)C23CC4CC(CC(C4)C2)C3)ccc1OCC(=O)NC(C)(C)C (stereo unspecified) | inconclusive: 16.4 µM [cytotoxic, single point] | 
34 | O=C(Nc1nccs1)[C@@H]1CC=C[C@@H]2CCN(C3CC3)C(=O)[C@@H]21 | inactive | 
35 | N#CC1(Nc2cccc(Cl)c2)CCCC1 | inconclusive: 23.1 µM [rising, single point] | 
36 | CC1(C)O[C@@H]2[C@H](O1)[C@@H](CO)O[C@H]2n1cc(Br)c(=O)[nH]c1=O | inconclusive: 25.9 µM [rising, partial curve, poor fit] | 
37 | CCOC(=O)C1=NN(c2ccccc2)C2(S1)SC(C(C)=O)=C(C)N2c1ccccc1 (stereo unspecified) | inconclusive: 20.6 µM [cytotoxic, single point] | 
38 | O=C(CCc1nc2ccccc2c(=O)[nH]1)Nc1ccccc1N1CCCC1 | inconclusive: 23.1 µM [rising, single point] | 
39 | O=C(Nc1cc(N2CCOCC2)ncn1)NC1(C(F)(F)F)Oc2ccccc2O1 | inconclusive: 29.1 µM [cytotoxic, single point] | 
40 | COc1ccc(C(=O)n2nc(-c3ccc(OC)cc3)nc2N)cc1 | inactive | 
41 | O=C(NNC1CC(c2ccccc2)=NN1C(=O)c1ccccc1)c1ccccc1 (stereo unspecified) | inactive | 
